The supplement of paper PMC10689618
Counter-ions that a name gives are not always drawn. The list shows a part of the results. Repeats are few or missing, and single values can be far off.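 Primary human fetal astrocytes engulfed labelled rat cortical synaptosomes, measured as a red/green ratio corrected for calcein live-cell signal and scaled to the plate median. Toxicity meant calcein falling over 30%; decreased phagocytosis meant below 70% of median above 5 µM.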

Assays:
Conditions in all cases: 24 h
Human fetal astrocytes [1] = assay: loss of total cells relative to no-compound high-control median (toxicity); higher = more toxic (fewer cells)
Human fetal astrocytes [2] = assay: as above; remark: listed apart in the source
Human fetal astrocytes [3] = assay: synaptosome phagocytosis (pHrodo/calcein intensity ratio) relative to plate median of data wells; higher = more phagocytosis
Human fetal astrocytes [4] = assay: as above; remark: listed apart in the source

SMILES | loss of total cells (Human fetal astrocytes [1]; 1.39 µM) [%] | loss of total cells (Human fetal astrocytes [1]; 2.78 µM) [%] | loss of total cells (Human fetal astrocytes [1]; 5.56 µM) [%] | loss of total cells (Human fetal astrocytes [1]; 11.11 µM) [%] | loss of total cells (Human fetal astrocytes [1]; 22.22 µM) [%] | loss of total cells (Human fetal astrocytes [2]; 1.39 µM) [%] | loss of total cells (Human fetal astrocytes [2]; 2.78 µM) [%] | loss of total cells (Human fetal astrocytes [2]; 5.56 µM) [%] | loss of total cells (Human fetal astrocytes [2]; 11.11 µM) [%] | loss of total cells (Human fetal astrocytes [2]; 22.22 µM) [%] | synaptosome phagocytosis (Human fetal astrocytes [3]; 1.39 µM) [%] | synaptosome phagocytosis (Human fetal astrocytes [3]; 2.78 µM) [%] | synaptosome phagocytosis (Human fetal astrocytes [3]; 5.56 µM) [%] | synaptosome phagocytosis (Human fetal astrocytes [3]; 11.11 µM) [%] | synaptosome phagocytosis (Human fetal astrocytes [3]; 22.22 µM) [%] | synaptosome phagocytosis (Human fetal astrocytes [4]; 1.39 µM) [%] | synaptosome phagocytosis (Human fetal astrocytes [4]; 2.78 µM) [%] | synaptosome phagocytosis (Human fetal astrocytes [4]; 5.56 µM) [%] | synaptosome phagocytosis (Human fetal astrocytes [4]; 11.11 µM) [%] | synaptosome phagocytosis (Human fetal astrocytes [4]; 22.22 µM) [%]
CN(C)CCC(c1ccc(Cl)cc1)c1ccccn1 (racemic) [(±)-Chlorpheniramine maleate] | -6.6 | -1.8 | -0.5 | -20.2 | 17.7 | -16.9 | -31 | 1.9 | -1 | 4.7 | 122 | 86.8 | 97.8 | 93.1 | 122 | 118 | 98.9 | 125 | 132 | 116
NC[C@@H](O)c1ccc(O)c(O)c1 [L(-)-Norepinephrine bitartrate] | -1.8 | -5.4 | -11.5 | 7.6 | 19.2 | 1.7 | 5.2 | 5.1 | 0.8 | 30.6 | 101 | 120 | 114 | 81.3 | 95.6 | 96.1 | 119 | 75 | 104 | 96.1
CC(=O)Oc1cc(C(C)C)c(OCCN(C)C)cc1C [Moxisylyte hydrochloride] | -24.2 | -5.9 | 3.3 | 7.6 | 20.6 | -4.7 | -7.6 | 10.9 | -8.8 | 28.8 | 73.8 | 142 | 112 | 72.5 | 144 | 86.2 | 115 | 121 | 117 | 95.7
O=C(O)C1=CCNCC1 [Isoguvacine hydrochloride] | -13.8 | -29.1 | -4.1 | -13 | -4 | 9.7 | 19.1 | 20.3 | 7.1 | 9.8 | 109 | 93.3 | 131 | 150 | 115 | 128 | 82.6 | 109 | 124 | 117
NC(=O)NO [Hydroxyurea] | 0.4 | 12 | -3.3 | 6.7 | 3.2 | 21.1 | -7.1 | 1.4 | 11.8 | -16.7 | 95.5 | 131 | 122 | 114 | 130 | 92.5 | 126 | 113 | 123 | 120
O=C(Nc1ccc([N+](=O)[O-])cc1Cl)c1cc(Cl)ccc1O [Niclosamide] | -10 | 20.4 | 53.1 | 47.6 | 66.4 | 25.8 | -17.5 | 26.1 | 27.2 | 36.4 | 78.9 | 44.7 | 68.3 | 20.7 | 45.4 | 84.1 | 60 | 0 | 10.6 | 19.5
Cc1cc(C(C)(C)C)cc(C)c1CC1=NCCN1 [Xylometazoline hydrochloride] | -7.1 | -10.5 | 5.6 | -26.4 | -33.7 | -4.5 | -15.9 | -27.2 | -5.5 | 10 | 116 | 83.6 | 101 | 75.2 | 61.3 | 102 | 90.1 | 96.6 | 117 | 92.3
CCN(CC)CCNC(=O)c1ccc(N)cc1 [Procainamide hydrochloride] | -4 | -11.7 | -11.2 | 1.1 | -23.9 | 8.6 | -20 | -1.4 | 4.9 | -8.8 | 133 | 90.6 | 139 | 112 | 110 | 124 | 136 | 105 | 123 | 115
CC(C(=O)O)c1cccc(C(=O)c2ccccc2)c1 (stereo not given) [Ketoprofen] | – | – | – | – | – | – | – | – | – | – | 107 | 81 | 110 | 80.8 | 107 | 98.7 | 94.9 | 90.9 | 106 | 122
CCCN(CCC)CCc1cccc2c1CC(=O)N2 [Ropinirole hydrochloride] | -9 | -2.1 | 4.5 | -5 | -17.3 | -27.4 | -23.8 | -9.9 | -0.3 | 0.3 | 108 | 123 | 119 | 89.3 | 127 | 125 | 106 | 103 | 80.2 | 92.1
COc1ccc(CCN(C)CCCC(C#N)(c2ccc(OC)c(OC)c2)C(C)C)cc1OC (racemic) [(±)-Verapamil hydrochloride] | – | – | – | – | – | – | – | – | – | – | 76.6 | 92.5 | 104 | 116 | 78.1 | 127 | 76.3 | 91.1 | 130 | 103
C[N+](C)(C)CC(=O)O [Betaine hydrochloride] | 3.3 | -2.1 | -24.4 | -18.4 | 15.4 | -22.6 | -46 | -1.2 | -12.1 | -5.3 | 121 | 69.2 | 88.2 | 67.8 | 87.6 | 130 | 112 | 98.3 | 81.1 | 111
O=C(O)CN(CCN(CC(=O)O)CC(=O)O)CCN(CC(=O)O)CC(=O)O [Diethylenetriaminepentaacetic acid] | -2.9 | 13.7 | -8.2 | -32.7 | 7.2 | -19.9 | -3.4 | 0.9 | -30.5 | -8.5 | 117 | 115 | 117 | 87.4 | 88.5 | 123 | 119 | 123 | 96.2 | 133
CN1CCN(CCCN2c3ccccc3Sc3ccc(C(F)(F)F)cc32)CC1 [Trifluoperazine dihydrochloride] | -15.2 | -33.2 | 0.6 | 18 | 22.2 | 27 | 2.4 | -18.1 | 8.4 | 51.4 | 45.7 | 53.2 | 49.5 | 34.2 | 8 | 87.6 | 99.9 | 82.8 | 65.2 | 41.9
O=C(O)Cc1ccccc1Nc1c(Cl)cccc1Cl [Diclofenac sodium] | 0.4 | -23.9 | 14 | -9.4 | 18.4 | 5.6 | -18.6 | 11.1 | 15.3 | 11.2 | 113 | 119 | 93.1 | 98.2 | 107 | 117 | 121 | 121 | 111 | 117
CCCCOc1cc(CC2CNC(=O)N2)ccc1OC (stereo not given) | -7.7 | -17.1 | -9.7 | 11.2 | 9.4 | -10.7 | -10.5 | -13.2 | 17.6 | 31.9 | 88.2 | 89.6 | 72.6 | 120 | 144 | 96.3 | 87.8 | 108 | 102 | 108
CCC(C)(C)C(=O)O[C@H]1C[C@@H](C)C=C2C=C[C@H](C)[C@H](CC[C@@H]3C[C@@H](O)CC(=O)O3)[C@H]21 | – | – | – | – | – | – | – | – | – | – | 149 | 115 | 71.5 | 91.9 | 76.8 | – | – | – | – | –
C[N+](C)(C)CCCCCC[N+](C)(C)C [Hexamethonium dichloride] | -1.3 | -6 | 3.3 | -21.1 | 0 | 11.9 | 1.1 | 10.1 | 5.4 | 0 | 88.6 | 79.4 | 83.9 | 154 | 151 | 89.5 | 107 | 102 | 90.9 | 108
O=C(c1ccc(OCCN2CCCCC2)cc1)c1c(-c2ccc(O)cc2)sc2cc(O)ccc12 [Raloxifene hydrochloride] | -10.9 | -6.3 | 21.9 | 8.8 | 24.7 | -27.4 | -17.5 | -3.7 | 27.2 | 0.3 | 77.9 | 83.6 | 66.9 | 75.4 | 29.1 | 87.7 | 78.6 | 90.6 | 46.9 | 38.6
NC(=O)N1c2ccccc2C=Cc2ccccc21 [Carbamazepine] | -23.1 | -13.5 | -26.3 | 4.9 | -4.1 | -16.6 | -4.6 | 8.7 | -3.1 | -13 | 90.3 | 86.6 | 87.4 | 141 | 111 | 121 | 108 | 122 | 126 | 88
CCCCNc1cc(C(=O)O)cc(S(N)(=O)=O)c1Oc1ccccc1 [Bumetanide] | -12.5 | -9 | -5.1 | -9.4 | -10.2 | -0.8 | -11.9 | 12.9 | 10.9 | -0.6 | 113 | 124 | 104 | 88.6 | 95.5 | 95.1 | 133 | 125 | 96.4 | 118
CN(C)CCCN1c2ccccc2Sc2ccc(C(F)(F)F)cc21 [Triflupromazine hydrochloride] | – | – | – | – | – | – | – | – | – | – | 66.8 | 90.7 | 62 | 49 | 44.2 | 85.7 | 82.5 | 59.6 | 78.7 | 53.3
O=C(c1ccccc1)c1ccc2n1CCC2C(=O)O (stereo not given) [Ketorolac tris salt] | -17.5 | -0.5 | 6.1 | 24.8 | 8.4 | -29 | 12.7 | 1.9 | 29.8 | 7.8 | 106 | 131 | 111 | 141 | 87.8 | 84.6 | 89.2 | 119 | 119 | 87.2
CN1CCC(=C2c3ccccc3CC(=O)c3sccc32)CC1 [Ketotifen fumarate] | -10 | -4.1 | 14.6 | -1.9 | 5.6 | 7.4 | -22.7 | -7 | 11.8 | -0.3 | 118 | 98.2 | 94.8 | 92.6 | 116 | 117 | 107 | 96.9 | 69.1 | 65.8
NCCCS(=O)(=O)O [3-Amino-1-propanesulfonic acid sodium] | -20.6 | -14.7 | -37.3 | -4.9 | 15.4 | -11.5 | 0.4 | 4.4 | 6.8 | 8.9 | 88.3 | 129 | 120 | 110 | 134 | 85.1 | 102 | 106 | 105 | 117
CC(C)(C)CC(C)(C)c1ccc(OCCOCC[N+](C)(C)Cc2ccccc2)cc1 | – | – | – | – | – | – | – | – | – | – | 50.8 | 29.2 | 47.7 | 26.2 | 0 | – | – | – | – | –
NCCS [Cysteamine hydrochloride] | -9 | 5.9 | 12.7 | -21 | -2.8 | 24.2 | -48.4 | 31.7 | -12.1 | 18.4 | 124 | 86.8 | 130 | 61.6 | 104 | 112 | 84.8 | 116 | 124 | 116
C[C@](N)(Cc1ccc(O)c(O)c1)C(=O)O [L-alpha-Methyl DOPA] | -26.1 | -6.8 | -5.2 | 12.4 | 4.7 | -19.1 | 5.2 | 1.5 | -11.7 | 11.3 | 108 | 85 | 88.8 | 64.4 | 97.6 | 81.7 | 118 | 94.6 | 110 | 106

Only synaptosome phagocytosis (Human fetal astrocytes [3]; 11.11 µM) [%], loss of total cells (Human fetal astrocytes [2]; 5.56 µM) [%] and synaptosome phagocytosis (Human fetal astrocytes [4]; 1.39 µM) [%], for some of the entries so far:
SMILES	synaptosome phagocytosis (Human fetal astrocytes [3]; 11.11 µM) [%]	loss of total cells (Human fetal astrocytes [2]; 5.56 µM) [%]	synaptosome phagocytosis (Human fetal astrocytes [4]; 1.39 µM) [%]
CCCCOc1cc(CC2CNC(=O)N2)ccc1OC (stereo not given)	120	-13.2	96.3
CCC(C)(C)C(=O)O[C@H]1C[C@@H](C)C=C2C=C[C@H](C)[C@H](CC[C@@H]3C[C@@H](O)CC(=O)O3)[C@H]21	91.9	–	–
